Results are given in words; binding and its absence hold for the method and conditions named. In cells and extracts the contact can be indirect. A result given as binding can be weak or reduced; the word gives no strength. Where a sequence is shown, tags or fusion partners need not be part of it.
molecular target: VHA-a-YFP (Mesembryanthemum crystallinum V-ATPase subunit a fused to YFP) (Mesembryanthemum crystallinum); assay: FRET or BRET; in vivo FRET by sensitized acceptor emission (confocal laser scanning microscopy) in co-transfected A. thaliana mesophyll protoplasts; CFP fusion as donor, YFP fusion as acceptor; a FRET value of 8-10% is taken as background

Row | Binder | binding
1 | VHA-c"_(trunc) (third and fourth helices of VHA-c"1) fused to CFP (domain or fragment, A. thaliana, UniProt Q9SZY7 88-180, looked up, VHA-c"1 aa 88-180 (helices 3 and 4), A. thaliana; Intermediate construct of the hybrid in vector 35S-CFP-C; fused to the C-terminus of the fluorescent protein; also called truncated VHA-c"; VHA-c"1_(trunc); source: A. thaliana mesophyll protoplasts, transiently transfected, in living cells; not shown: CFP, N-terminal, kept) QTKLESVPSSKMYDAESLRAGYAIFASGIIVGFANLVCGLCVGIIGSSCALSDAQNSTLFVKILVIEIFGSALGLFGVIVGIIMSAQATWPTK | binds
2 | VHA-c"1 (V-ATPase proteolipid subunit c", isoform 1) fused to CFP or YFP (protein, UniProt Q9SZY7 1-180) MSGVVALGHASSWGAALVRISPYTFSAIGIAISIGVSVLGAAWGIYITGSSLIGAAIEAPRITSKNLISVIFCEAVAIYGVIVAIILQTKLESVPSSKMYDAESLRAGYAIFASGIIVGFANLVCGLCVGIIGSSCALSDAQNSTLFVKILVIEIFGSALGLFGVIVGIIMSAQATWPTK | binds
3 | VHA-c3 (V-ATPase proteolipid subunit c, isoform 3) fused to CFP or YFP (natural protein, A. thaliana, UniProt P0DH93 1-164, looked up, VHA-c3, A. thaliana, At4g38920, open reading frame without the stop codon; One molecule for the CFP and the YFP fusion; vectors 35S-CFP-NosT and 35S-YFP-NosT; List of constructs in Additional file 4; also called VHA-c-CFP; VHA-c-YFP; source: A. thaliana mesophyll protoplasts, transiently transfected, in living cells; not shown: CFP or YFP, C-terminal, kept) MSTFSGDETAPFFGFLGAAAALVFSCMGAAYGTAKSGVGVASMGVMRPELVMKSIVPVVMAGVLGIYGLIIAVIISTGINPKAKSYYLFDGYAHLSSGLACGLAGLSAGMAIGIVGDAGVRANAQQPKLFVGMILILIFAEALALYGLIVGIILSSRAGQSRAE | binds
4 | hybrid proteolipid subunit (VHA-c helices 3-4 and VHA-c"1 helices 3-4) fused to CFP (protein, UniProt P0DH93 80-164; Q9SZY7 88-180) NPKAKSYYLFDGYAHLSSGLACGLAGLSAGMAIGIVGDAGVRANAQQPKLFVGMILILIFAEALALYGLIVGIILSSRAGQSRAEQTKLESVPSSKMYDAESLRAGYAIFASGIIVGFANLVCGLCVGIIGSSCALSDAQNSTLFVKILVIEIFGSALGLFGVIVGIIMSAQATWPTK | binds
